Test results as given in PubChem BioAssay AID504834 (National Center for Advancing Translational Sciences (NCATS), 2011).
Out of some 320,000 compounds screened, about 22,000 (6.9%) were called active. The inconclusive results got no clear call from the source; some entries with a clear call stand among them for comparison. Calls come from the whole dose curve; as a rule, active = well fitted inhibition curve with a large enough effect; inconclusive = small, poorly fitted or top-dose-only effect, or another doubt; inactive = no such curve, though single readings can be large or run the other way. Potencies of inconclusive entries are doubtful fits and often do not repeat.

Assay: Primary qHTS for delayed death inhibitors of the malarial parasite plastid, 96 hour incubation
Details: P. falciparum luciferase reporter growth; series mostly up to 28.7 µM; activity change, negative = inhibition: at the top concentration
In short: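 P. falciparum expressing integrated firefly luciferase, in erythrocytes at 2% hematocrit, 0.05% parasitemia, incubated with compounds 96 h at 37 C, 5% CO2. Growth inhibition read as loss of luminescence; two-generation exposure targets delayed-death apicoplast inhibitors.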
% is set by controls: 0 for no effect and ±100 for the full control effect; potency is the fitted concentration of half-maximal effect.

Question: With `O=C(/C=C/c1cc([N+](=O)[O-])ccc1OC(F)F)Nc1cccc2ccccc12` as the molecule, how does the “activity change, negative = inhibition” value read?
Answer: inactive: -7.14%

Question: With `Cn1c(SCC(=O)N/N=C/c2ccccn2)nnc1-c1ccccc1` as the molecule, how does the “activity change, negative = inhibition” value read?
Answer: inactive: -5.29%

Question: Which Potency does the source give for `O=C(Nc1nc(-c2ccccn2)cs1)c1ccco1` here?
Answer: inconclusive: 1.31 µM [inhibitor, full curve]

Question: For `COC(=O)c1ccc(Nc2nc(N3CCOCC3)nc(N3CCOCC3)n2)cc1`, which Potency is on record?
Answer: inconclusive: 16.5 µM [inhibitor, single point]

Question: Which Potency does the source give for `Cc1cc(NC(=O)/C=C/c2ccccc2Cl)no1` here?
Answer: inconclusive: 13.1 µM [inhibitor, single point]

Question: For `CCOc1ccccc1CN1CCN(Cc2ccc3cc(F)ccc3n2)CC1CCO` (stereo not drawn), which Potency is on record?
Answer: inconclusive: 2.62 µM [inhibitor, partial curve, poor fit]

Question: With `Cc1c(O)ccc(C(=O)CN2CCN(c3ccccc3F)CC2)c1O` as the molecule, how does the Potency read?
Answer: inconclusive: 3.7 µM [inhibitor, full curve]

Question: Which Potency does the source give for `O=C(CSc1nccn1-c1ccccc1)NCc1ccc2c(c1)OCO2` here?
Answer: inconclusive: 18.5 µM [inhibitor, single point]

Question: Which “activity change, negative = inhibition” value does the source give for `Cc1ccc(S(=O)(=O)N2CCSC2)cc1C` here?
Answer: inactive: 2.87%

Question: Which Potency does the source give for `Cc1ccccc1C1c2[nH]c3ccccc3c2C[C@H]2C(=O)N(c3ccccc3C(=O)NCCCN3CCOCC3)C(=O)N12` (stereo partly drawn) here?
Answer: active: 11.7 µM

Question: For `CC(C)NC(NC(=O)/C=C/c1ccccc1)C(Cl)(Cl)Cl` (stereo not drawn), which Potency is on record?
Answer: active: 1.04 µM

Question: Which Potency does the source give for `CC(=O)c1c(C)[nH]c(C(=O)OCc2ccccc2)c1C` here?
Answer: inconclusive: 16.5 µM [inhibitor, partial curve, poor fit]

Question: Which “activity change, negative = inhibition” value does the source give for `O=C(/C=C/c1ccc(O)cc1)OCc1occc(=O)c1O[C@@H]1OC(CO)[C@@H](O)[C@H](O)[C@@H]1O` (stereo partly drawn) here?
Answer: inactive: -16.6%

Question: For `CCOC(=O)C(C(=O)N(C)Cc1ccccc1)C1CCCCC1` (stereo not drawn), which Potency is on record?
Answer: inconclusive: 14.7 µM [inhibitor, single point]

Question: With `CC(C)c1ccccc1OCC(=O)Nc1cc(S(=O)(=O)N2CCOCC2)ccc1N1CCCC1` as the molecule, how does the Potency read?
Answer: inconclusive: 6.57 µM [inhibitor, partial curve, poor fit]

Question: Which “activity change, negative = inhibition” value does the source give for `CCNc1nc(Oc2ccc(C(=O)OCC)cc2)nc(SC)n1` here?
Answer: inactive: 5.66%

Question: For `O=C(CCN1c2ccccc2Sc2ccccc21)OCC(=O)N1CCN(C(=O)c2ccco2)CC1`, which Potency is on record?
Answer: inconclusive: 2.08 µM [inhibitor, partial curve, poor fit]

Question: Which Potency does the source give for `O=C(CC12CCC(CC1)C2)NCc1ccc2c(c1)OCO2` here?
Answer: inconclusive: 18.5 µM [inhibitor, single point]

Question: With `Cc1ccc2nc3c(cc(C(=O)NC4CCCC4)c(=N)n3CCCn3ccnc3)c(=O)n2c1` as the molecule, how does the Potency read?
Answer: inconclusive: 13.1 µM [inhibitor, partial curve, poor fit]

Question: Which “activity change, negative = inhibition” value does the source give for `COCCNS(=O)(=O)c1ccc(C)c(C)c1C` here?
Answer: inactive: -0.947%

Question: For `CCOc1ccccc1CN1CCNC(=O)C1CC(=O)N(C)Cc1nonc1C` (stereo not drawn), which Potency is on record?
Answer: inconclusive: 18.5 µM [inhibitor, partial curve, poor fit]

Question: For `COc1ccc(-c2cc(C(=O)Nc3cc(C)on3)c3ccccc3n2)c(OC)c1`, which “activity change, negative = inhibition” value is on record?
Answer: inactive: 76.9%

Question: For `COc1ccc(N(C(=O)CNC(=O)c2cccs2)C(C(=O)NC2CCCC2)c2ccncc2)cc1` (stereo not drawn), which Potency is on record?
Answer: active: 13.1 µM

Question: For `O=C(NCCC(=O)N(CCc1ccccc1)Cc1ccccc1)c1ccc(Br)cc1`, which Potency is on record?
Answer: active: 13.1 µM

Question: For `Cc1ccc(-c2nn(-c3ccc(F)cc3)cc2C(=O)N2CCN(C3CCS(=O)(=O)C3)CC2)cc1` (stereo not drawn), which Potency is on record?
Answer: inconclusive: 11.7 µM [inhibitor, single point]

Question: Which Potency does the source give for `Cc1cc(-n2nc(C)cc2C)n2nc(C)c(-c3ccccc3)c2n1` here?
Answer: inconclusive: 9.28 µM [inhibitor, single point]

Question: Which Potency does the source give for `Cc1ccc(NC(=O)c2ccc3nsnc3c2)c(C)c1` here?
Answer: inconclusive: 11.7 µM [inhibitor, single point]

Question: Which Potency does the source give for `O=C(CSc1nccn(-c2ccc(Br)cc2)c1=O)NCc1ccccc1` here?
Answer: inconclusive: 1.17 µM [inhibitor, partial curve, poor fit]

Question: For `CC12CN3CC(C)(CN(C1)C31CCOCC1)C2=O`, which Potency is on record?
Answer: inconclusive: 18.5 µM [inhibitor, single point]

Question: Which Potency does the source give for `CS(=O)(=O)c1cccc(NC(=O)C2CC2)c1` here?
Answer: inconclusive: 10.4 µM [inhibitor, single point]

Question: For `CC1CCCCN1C(=O)C1CC(c2ccc(F)cc2)=NO1` (stereo not drawn), which Potency is on record?
Answer: inconclusive: 7.38 µM [inhibitor, partial curve]

Question: Which “activity change, negative = inhibition” value does the source give for `O=S1(=O)NC(CC2=CCCCC2)C2CCCCC2O1` (stereo not drawn) here?
Answer: inactive: -4.19%

Question: For `CC(=O)N1CCCc2cc(S(=O)(=O)N3CCCC(C(=O)N4CCN(c5cccc(Cl)c5)CC4)C3)ccc21` (stereo not drawn), which Potency is on record?
Answer: inconclusive: 18.5 µM [inhibitor, single point]

Question: For `CN(C)c1ccc(P(=O)(OCc2ccccc2)C(O)c2ccc(Cl)cc2)cc1` (stereo not drawn), which Potency is on record?
Answer: inconclusive: 2.08 µM [inhibitor, full curve, poor fit]

Question: Which Potency does the source give for `O=C(CCN1C(=O)/C(=C\c2ccccc2)SC1=S)N1CCCCC1` here?
Answer: inconclusive: 14.7 µM [inhibitor, single point]

Question: Which Potency does the source give for `CCOC(=O)C1=C(C)NC(C)=C(C(=O)OCC)C1C(=O)OCC(=O)NCCc1ccc(S(N)(=O)=O)cc1` here?
Answer: inconclusive: 13.1 µM [inhibitor, partial curve, poor fit]

Question: For `CC(=O)N1CCN(S(=O)(=O)c2ccc(C)cc2)C1C(C)C` (stereo not drawn), which Potency is on record?
Answer: inconclusive: 2.62 µM [inhibitor, partial curve, poor fit]

Question: Which Potency does the source give for `Cc1cc(C)n(-c2ccc(C(=O)Nc3cccc(S(=O)(=O)N(C)C)c3)cc2)n1` here?
Answer: inconclusive: 16.5 µM [inhibitor, single point]

Question: Which Potency does the source give for `CCN(CC)CCNc1nc2cc(OC)c(OC)cc2c2nc(-c3ccccc3)nn12` here?
Answer: inconclusive: 10.4 µM [inhibitor, single point]

Question: For `Cc1ccc2nccc(C(=O)N3CCCC(N4CCN(c5ccc(F)cc5)CC4)C3)c2c1` (stereo not drawn), which “activity change, negative = inhibition” value is on record?
Answer: inactive: 4.83%

Question: For `CS(=O)(=O)Nc1ccccc1C(=O)OCC(=O)N1CCC(c2ccccc2)=N1`, which “activity change, negative = inhibition” value is on record?
Answer: inactive: -20.5%

Question: Which “activity change, negative = inhibition” value does the source give for `CCN(C(=O)Cn1ccc(C(F)(F)F)n1)c1c(N)n(Cc2ccccc2)c(=O)[nH]c1=O` here?
Answer: inactive: -21.7%

Question: Which Potency does the source give for `CCOC(=O)N1CCN(C(=O)c2nn(-c3ccc(C)cc3)c(=O)c3c2c2ccccc2n3C)CC1` here?
Answer: inconclusive: 16.5 µM [inhibitor, single point]

Question: Which “activity change, negative = inhibition” value does the source give for `Cc1ccccc1OCc1ccc(C(=O)N2CCOCC2)o1` here?
Answer: inactive: 4.04%

Question: Which Potency does the source give for `Cc1nc(Nc2ccc(O)cc2)c2c3c(sc2n1)CCCC3` here?
Answer: inconclusive: 14.7 µM [inhibitor, partial curve, poor fit]

Question: For `CCN(CC)c1ccc2nc3ccccc3[n+](CC)c2c1`, which Potency is on record?
Answer: inconclusive: 11.7 µM [inhibitor, single point]

Question: Which Potency does the source give for `CCCCC1(O)CC(C(F)(F)F)=NN1C(=O)COc1ccccc1` (stereo not drawn) here?
Answer: active: 0.117 µM

Question: For `Nc1nc(NCc2ccccc2Cl)n(-c2ccccc2)n1`, which Potency is on record?
Answer: inconclusive: 8.28 µM [inhibitor, partial curve, poor fit]

Question: With `CC1CCCN(C(=O)C2CCN(S(=O)(=O)c3cccc4nonc34)CC2)C1` (stereo not drawn) as the molecule, how does the “activity change, negative = inhibition” value read?
Answer: inactive: 5.17%

Question: With `CC(=O)Nc1ccc(S(=O)(=O)N2CCCC3CCCCC32)cc1` (stereo not drawn) as the molecule, how does the Potency read?
Answer: inconclusive: 6.57 µM [inhibitor, partial curve]

Question: With `COc1ccc(N2CCN(c3oc(Cc4cccc5ccccc45)nc3C#N)CC2)cc1` as the molecule, how does the Potency read?
Answer: inconclusive: 18.5 µM [inhibitor, single point]

Question: Which Potency does the source give for `COc1ccc2c(C)cc(=O)[nH]c2c1` here?
Answer: inconclusive: 4.15 µM [inhibitor, single point]

Question: With `CC1CCCN(C(=O)c2ccc(NS(=O)(=O)c3cccc([N+](=O)[O-])c3)cc2)C1` (stereo not drawn) as the molecule, how does the “activity change, negative = inhibition” value read?
Answer: inactive: 7.65%

Question: Which Potency does the source give for `CCOC(=O)N1CCN(C(=O)CN2C(=O)NC(C)(c3ccc4ccccc4c3)C2=O)CC1` (stereo not drawn) here?
Answer: inconclusive: 10.4 µM [inhibitor, single point]

Question: With `CCCc1nc2ccccc2n1C(=S)SC` as the molecule, how does the Potency read?
Answer: inconclusive: 0.586 µM [inhibitor, full curve, poor fit]

Question: Which Potency does the source give for `N#Cc1ccccc1NC(=O)CNc1cc(S(=O)(=O)N2CCOCC2)ccc1NCC1CCCO1` (stereo not drawn) here?
Answer: inconclusive: 10.4 µM [inhibitor, partial curve]

Question: Which “activity change, negative = inhibition” value does the source give for `CCn1c(SCC(=O)Nc2cc(C)on2)nc2c(c1=O)SCC2` here?
Answer: inactive: -6.12%

Question: For `Cc1c(C(=O)Nc2ccc(N3CCOCC3)cc2)cccc1[N+](=O)[O-]`, which “activity change, negative = inhibition” value is on record?
Answer: inactive: -1.18%

Question: Which Potency does the source give for `Cc1onc(-c2ccccc2)c1C(=O)OCC(=O)NC(C)c1ccc(Cl)cc1` (stereo not drawn) here?
Answer: inconclusive: 10.4 µM [inhibitor, partial curve, poor fit]

Question: With `C=C(C)CN(CC)c1nc(N)c(C#N)c(CC#N)c1C#N` as the molecule, how does the Potency read?
Answer: inconclusive: 13.1 µM [inhibitor, partial curve, poor fit]

Question: For `Cc1ccc(S(=O)(=O)NCc2ccc(C(=O)N3CCc4ccccc4C3)cc2)cc1`, which Potency is on record?
Answer: active: 6.57 µM

Question: Which “activity change, negative = inhibition” value does the source give for `COc1ccc(CCNC(=O)C23CCC(C)(C(=O)C2Br)C3(C)C)cc1OC` (stereo not drawn) here?
Answer: inactive: -18.1%

Question: For `N#CC1=C(N)OC2=C(C(=O)CCC2)C1c1ccccc1` (stereo not drawn), which Potency is on record?
Answer: inconclusive: 18.5 µM [inhibitor, single point]

Question: For `COc1cc(C2C(C(C)=O)=C(O)C(=O)N2c2ccc(C)cc2)ccc1O` (stereo not drawn), which “activity change, negative = inhibition” value is on record?
Answer: inactive: -0.683%

Question: With `CCCn1c(=O)c2ccccc2n2c(SCCOc3ccc(C)cc3)nnc12` as the molecule, how does the Potency read?
Answer: inconclusive: 10.4 µM [inhibitor, single point]

Question: For `COc1cccc(NC(=O)COC(=O)CNS(=O)(=O)c2c(F)cccc2F)c1`, which Potency is on record?
Answer: inconclusive: 7.38 µM [inhibitor, partial curve, poor fit]

Question: For `Cc1ccc(N2C(=O)C(NC(=O)c3ccccc3)(C(F)(F)F)C3=C2CC(C)(C)CC3=O)cc1` (stereo not drawn), which “activity change, negative = inhibition” value is on record?
Answer: inactive: -16.3%

Question: Which “activity change, negative = inhibition” value does the source give for `COc1cc(NC(=O)c2[nH]c(C)c(C(C)=O)c2C)cc(OC)c1OC` here?
Answer: inactive: -4.61%
